Values quoted from earlier work in patent publication US20150209335A1, “METHODS AND SMALL MOLECULE THERAPEUTICS COMPRISING FUSED ELPS” (UNIVERSITY OF SOUTHERN CALIFORNIA, priority 2012, published 2015).

Settings: cited from earlier work

CO[C@H]1C[C@@H]2CC[C@@H](C)[C@@](O)(O2)C(=O)C(=O)N2CCCC[C@H]2C(=O)O[C@H]([C@H](C)C[C@@H]2CC[C@@H](O)[C@H](OC)C2)CC(=O)[C@H](C)/C=C(\C)[C@@H](O)[C@@H](OC)C(=O)[C@H](C)C[C@H](C)/C=C/C=C/C=C/1C [rapamycin, (3S,6R,7E,9R,10R,12R,14S,15E,17E,19E,21S,23S,26R,27R,34aS)-9,10,12,13,14,21,22,23,24,25,26,27,32,33,34,34a-hexadecahydro-9,27-dihydroxy-3-[(1R)-2-[(1S,3R,4R)-4-hydroxy-3-methoxycyclohexyl]-1-methylethyl]-10,21-dimethoxy-6,8,12,14,20,26-hexamethyl-23,27-epoxy-3H-pyrido[2,1-c][1,4]-oxaazacyclohentriacontine-1,5,11,28,29 (4H,6H,31H)-pentone]
solubility in H2O: less than 10 μM
